No constants are given. Whether binding was seen depends on the method and setting. For some of these results: In cells and extracts the contact can be indirect. Some entries that bind do so weakly or less than the wild type. For some of these results: Tags and fused reporters may be left off the sequences shown.
T1: Nesprin-2 SR52-53 (amino acids 6136-6354 of the full length of nesprin-2 giant), yeast two-hybrid bait (human) (UniProt Q8WXH0)
T1 sequence: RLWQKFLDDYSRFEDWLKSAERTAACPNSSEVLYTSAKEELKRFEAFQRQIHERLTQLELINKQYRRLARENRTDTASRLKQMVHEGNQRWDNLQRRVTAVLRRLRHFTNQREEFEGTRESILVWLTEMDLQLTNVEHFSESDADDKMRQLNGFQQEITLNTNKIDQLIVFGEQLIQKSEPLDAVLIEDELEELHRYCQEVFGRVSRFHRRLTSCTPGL

T2: GST-nesprin-2 SR51-53 (amino acids 6018-6354) (human) (UniProt Q8WXH0)
T2 sequence: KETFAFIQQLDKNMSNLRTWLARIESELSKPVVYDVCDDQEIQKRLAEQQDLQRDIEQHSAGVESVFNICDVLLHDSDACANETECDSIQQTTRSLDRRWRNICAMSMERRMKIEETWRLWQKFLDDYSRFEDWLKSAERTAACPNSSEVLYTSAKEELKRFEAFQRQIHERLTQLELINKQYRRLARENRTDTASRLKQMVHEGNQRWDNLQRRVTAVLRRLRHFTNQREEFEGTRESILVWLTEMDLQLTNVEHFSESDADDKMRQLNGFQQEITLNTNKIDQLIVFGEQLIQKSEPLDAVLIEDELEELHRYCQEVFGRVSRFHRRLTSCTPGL

T3: GST nesprin-2 CT (SR51-56, amino acids 6018-6781, without KASH) (human) (UniProt Q8WXH0)
T3 sequence: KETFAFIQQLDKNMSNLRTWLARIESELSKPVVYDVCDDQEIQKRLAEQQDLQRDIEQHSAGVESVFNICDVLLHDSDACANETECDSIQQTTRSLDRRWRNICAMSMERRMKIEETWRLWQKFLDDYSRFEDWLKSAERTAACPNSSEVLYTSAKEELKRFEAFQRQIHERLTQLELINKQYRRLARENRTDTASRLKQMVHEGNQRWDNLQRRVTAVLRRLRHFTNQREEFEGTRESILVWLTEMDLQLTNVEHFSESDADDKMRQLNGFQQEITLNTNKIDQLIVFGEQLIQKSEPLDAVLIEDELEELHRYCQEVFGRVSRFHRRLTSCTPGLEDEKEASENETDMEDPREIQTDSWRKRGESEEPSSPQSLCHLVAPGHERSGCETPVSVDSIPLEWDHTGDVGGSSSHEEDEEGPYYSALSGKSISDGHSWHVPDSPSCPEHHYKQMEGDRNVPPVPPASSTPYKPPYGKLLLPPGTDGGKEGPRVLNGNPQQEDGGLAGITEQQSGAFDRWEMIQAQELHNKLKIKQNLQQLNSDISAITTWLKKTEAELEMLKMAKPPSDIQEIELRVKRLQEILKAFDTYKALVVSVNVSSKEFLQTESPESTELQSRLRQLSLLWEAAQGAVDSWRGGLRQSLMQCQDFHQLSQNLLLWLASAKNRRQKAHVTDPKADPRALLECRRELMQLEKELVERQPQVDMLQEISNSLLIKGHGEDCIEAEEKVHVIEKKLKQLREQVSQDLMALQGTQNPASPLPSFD

T4: GST-nesprin-2 SR51-53 T6211M (human) (UniProt Q8WXH0)
T4 sequence: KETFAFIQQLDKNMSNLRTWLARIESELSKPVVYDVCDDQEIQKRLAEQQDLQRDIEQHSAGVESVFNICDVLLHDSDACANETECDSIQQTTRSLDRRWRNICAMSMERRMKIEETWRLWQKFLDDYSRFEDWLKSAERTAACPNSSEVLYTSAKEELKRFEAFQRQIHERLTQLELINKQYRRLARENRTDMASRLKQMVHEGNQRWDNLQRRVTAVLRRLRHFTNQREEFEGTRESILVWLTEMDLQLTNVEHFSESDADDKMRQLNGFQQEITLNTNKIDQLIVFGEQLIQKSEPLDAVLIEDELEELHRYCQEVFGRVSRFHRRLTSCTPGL

T5: His-tagged full-length telethonin (recombinant, WT) (UniProt O15273)
T5 sequence: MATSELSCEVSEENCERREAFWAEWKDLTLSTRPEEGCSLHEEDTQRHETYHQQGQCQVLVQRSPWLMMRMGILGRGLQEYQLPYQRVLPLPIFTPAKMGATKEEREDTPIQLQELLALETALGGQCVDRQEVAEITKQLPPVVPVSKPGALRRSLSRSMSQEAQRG


Columns and labels:
[1] = target: T1, Nesprin-2 SR52-53 (amino acids 6136-6354 of the full length of nesprin-2 giant), yeast two-hybrid bait (human); assay: two-hybrid; screen of a human cardiac muscle cDNA library (pACT2) with nesprin-2 SR52-53 and SR54-56 baits in yeast strain AH109; colony re-screening
[2] = target: T2, GST-nesprin-2 SR51-53 (amino acids 6018-6354) (human); assay: pull-down; GST-nesprin-2 on glutathione-Sepharose 4B beads; 1 ug purified HA- or His-telethonin recombinant protein (with or without PKD pre-treatment) with 50 ul beads, 2 h, 4 °C; Western blot; both purified
[3] = target: T3, GST nesprin-2 CT (SR51-56, amino acids 6018-6781, without KASH) (human); assay: pull-down; GST-nesprin-2 beads incubated with GFP-tagged FHL-2 proteins; Western blot
[4] = target: T4, GST-nesprin-2 SR51-53 T6211M (human); assay: as above
[5] = target: T2, GST-nesprin-2 SR51-53 (amino acids 6018-6354) (human); assay: as above
[6] = target: T4, GST-nesprin-2 SR51-53 T6211M (human); assay: pull-down; GST-nesprin-2 on glutathione-Sepharose 4B beads; 1 ug purified HA- or His-telethonin recombinant protein (with or without PKD pre-treatment) with 50 ul beads, 2 h, 4 °C; Western blot; both purified
[7] = target: T5, His-tagged full-length telethonin (recombinant, WT); assay: native gel or EMSA; Native Page Novex gel; the two His-tagged proteins purified separately, mixed at increasing molar ratios of nesprin:telethonin in PBS with 0.3% Sarcosyl, 20 min, room temperature; blot with telethonin antibody; both purified

| Binder | binding [2] | further results |
| --- | --- | --- |
| telethonin, full-length clones from a human cardiac muscle cDNA library (yeast two-hybrid prey) (protein, UniProt O15273 1-167) MATSELSCEVSEENCERREAFWAEWKDLTLSTRPEEGCSLHEEDTQRHETYHQQGQCQVLVQRSPWLMMRMGILGRGLQEYQLPYQRVLPLPIFTPAKMGATKEEREDTPIQLQELLALETALGGQCVDRQEVAEITKQLPPVVPVSKPGALRRSLSRSMSQEAQRG | – | binding [1]: binds |
| HA-tagged telethonin S157A/S161A double mutant, purified recombinant protein (protein, UniProt O15273 1-167) MATSELSCEVSEENCERREAFWAEWKDLTLSTRPEEGCSLHEEDTQRHETYHQQGQCQVLVQRSPWLMMRMGILGRGLQEYQLPYQRVLPLPIFTPAKMGATKEEREDTPIQLQELLALETALGGQCVDRQEVAEITKQLPPVVPVSKPGALRRSLARSMAQEAQRG | binds | – |
| HA-tagged telethonin S157A, pre-treated with PKD (protein, UniProt O15273 1-167, phosphorylated by PKD in vitro (Ser-161 left as site)) MATSELSCEVSEENCERREAFWAEWKDLTLSTRPEEGCSLHEEDTQRHETYHQQGQCQVLVQRSPWLMMRMGILGRGLQEYQLPYQRVLPLPIFTPAKMGATKEEREDTPIQLQELLALETALGGQCVDRQEVAEITKQLPPVVPVSKPGALRRSLARSMSQEAQRG | binds weakly | – |
| HA-tagged telethonin S161A, pre-treated with PKD (protein, UniProt O15273 1-167, phosphorylated by PKD in vitro (Ser-157 left as site)) MATSELSCEVSEENCERREAFWAEWKDLTLSTRPEEGCSLHEEDTQRHETYHQQGQCQVLVQRSPWLMMRMGILGRGLQEYQLPYQRVLPLPIFTPAKMGATKEEREDTPIQLQELLALETALGGQCVDRQEVAEITKQLPPVVPVSKPGALRRSLSRSMAQEAQRG | binds weakly | – |
| GFP-tagged FHL-2 WT (protein, UniProt Q14192 1-279) MTERFDCHHCNESLFGKKYILREESPYCVVCFETLFANTCEECGKPIGCDCKDLSYKDRHWHEACFHCSQCRNSLVDKPFAAKEDQLLCTDCYSNEYSSKCQECKKTIMPGTRKMEYKGSSWHETCFICHRCQQPIGTKSFIPKDNQNFCVPCYEKQHAMQCVQCKKPITTGGVTYREQPWHKECFVCTACRKQLSGQRFTARDDFAYCLNCFCDLYAKKCAGCTNPISGLGGTKYISFEERQWHNDCFNCKKCSLSLVGRGFLTERDDILCPDCGKDI | – | binding [3]: binds; binding [4]: binds; binding [5]: binds |
| FHL-2 amino acids 85 to 279, clones from a human cardiac muscle cDNA library (yeast two-hybrid prey) (domain or fragment, UniProt Q14192 85-279) DQLLCTDCYSNEYSSKCQECKKTIMPGTRKMEYKGSSWHETCFICHRCQQPIGTKSFIPKDNQNFCVPCYEKQHAMQCVQCKKPITTGGVTYREQPWHKECFVCTACRKQLSGQRFTARDDFAYCLNCFCDLYAKKCAGCTNPISGLGGTKYISFEERQWHNDCFNCKKCSLSLVGRGFLTERDDILCPDCGKDI | – | binding [1]: binds |
| His-tagged full-length telethonin (recombinant, WT) (protein, UniProt O15273 1-167) MATSELSCEVSEENCERREAFWAEWKDLTLSTRPEEGCSLHEEDTQRHETYHQQGQCQVLVQRSPWLMMRMGILGRGLQEYQLPYQRVLPLPIFTPAKMGATKEEREDTPIQLQELLALETALGGQCVDRQEVAEITKQLPPVVPVSKPGALRRSLSRSMSQEAQRG | binds | binding [6]: binds |
| His-tagged telethonin R153H, without PKD pre-treatment (protein, UniProt O15273 1-167) MATSELSCEVSEENCERREAFWAEWKDLTLSTRPEEGCSLHEEDTQRHETYHQQGQCQVLVQRSPWLMMRMGILGRGLQEYQLPYQRVLPLPIFTPAKMGATKEEREDTPIQLQELLALETALGGQCVDRQEVAEITKQLPPVVPVSKPGALHRSLSRSMSQEAQRG | binds | – |
| GFP-FHL-2 R113C mutant (protein, UniProt Q14192 1-279) MTERFDCHHCNESLFGKKYILREESPYCVVCFETLFANTCEECGKPIGCDCKDLSYKDRHWHEACFHCSQCRNSLVDKPFAAKEDQLLCTDCYSNEYSSKCQECKKTIMPGTCKMEYKGSSWHETCFICHRCQQPIGTKSFIPKDNQNFCVPCYEKQHAMQCVQCKKPITTGGVTYREQPWHKECFVCTACRKQLSGQRFTARDDFAYCLNCFCDLYAKKCAGCTNPISGLGGTKYISFEERQWHNDCFNCKKCSLSLVGRGFLTERDDILCPDCGKDI | – | binding [5]: binds |
| nesprin-2 SR51-53 (no tag), co-expressed with His-telethonin (domain or fragment, human, UniProt Q8WXH0 6018-6354, looked up, nesprin-2 giant, human, spectrin repeats 51-53, amino acids 6018-6354 of the full length of nesprin-2 giant; in CDF DUET-1 without a tag; printed mass 40.51 kDa; source: E. coli BL21(DE3)pLysS, co-expressed with His-telethonin, co-purified (His-trap, SEC)) KETFAFIQQLDKNMSNLRTWLARIESELSKPVVYDVCDDQEIQKRLAEQQDLQRDIEQHSAGVESVFNICDVLLHDSDACANETECDSIQQTTRSLDRRWRNICAMSMERRMKIEETWRLWQKFLDDYSRFEDWLKSAERTAACPNSSEVLYTSAKEELKRFEAFQRQIHERLTQLELINKQYRRLARENRTDTASRLKQMVHEGNQRWDNLQRRVTAVLRRLRHFTNQREEFEGTRESILVWLTEMDLQLTNVEHFSESDADDKMRQLNGFQQEITLNTNKIDQLIVFGEQLIQKSEPLDAVLIEDELEELHRYCQEVFGRVSRFHRRLTSCTPGL | – | binding [7]: binds |
| HA-tagged telethonin WT, purified recombinant protein, without PKD pre-treatment (protein, UniProt O15273 1-167) MATSELSCEVSEENCERREAFWAEWKDLTLSTRPEEGCSLHEEDTQRHETYHQQGQCQVLVQRSPWLMMRMGILGRGLQEYQLPYQRVLPLPIFTPAKMGATKEEREDTPIQLQELLALETALGGQCVDRQEVAEITKQLPPVVPVSKPGALRRSLSRSMSQEAQRG | binds | – |
| HA-tagged telethonin S157A, purified recombinant protein, without PKD pre-treatment (protein, UniProt O15273 1-167) MATSELSCEVSEENCERREAFWAEWKDLTLSTRPEEGCSLHEEDTQRHETYHQQGQCQVLVQRSPWLMMRMGILGRGLQEYQLPYQRVLPLPIFTPAKMGATKEEREDTPIQLQELLALETALGGQCVDRQEVAEITKQLPPVVPVSKPGALRRSLARSMSQEAQRG | binds | – |
| HA-tagged telethonin S161A, purified recombinant protein, without PKD pre-treatment (protein, UniProt O15273 1-167) MATSELSCEVSEENCERREAFWAEWKDLTLSTRPEEGCSLHEEDTQRHETYHQQGQCQVLVQRSPWLMMRMGILGRGLQEYQLPYQRVLPLPIFTPAKMGATKEEREDTPIQLQELLALETALGGQCVDRQEVAEITKQLPPVVPVSKPGALRRSLSRSMAQEAQRG | binds | – |
